According to article PMC6397271 (Scientific Reports, 2019):

Assay: general procedure: Fmoc solid-phase peptide synthesis; Rink-Amide TentaGel S RAM resin (0.25 mmol/g); TBTU/HOBt/NMM
Conditions: conjugation step
“Fl-AGYLLGK^7(C(O)-Tra(1,4)-PEG4-C(O)-Van)INLKALAALAKKIL-amide” gave a conjugation yield of 24%.
“Van-NH-PEG3-Tra(1,4)-C(O)-AGYLLGKINLKALAALAKKIL-amide” showed a conjugation yield of 47%.
For “AGYLLGK^7(C(O)-Tra(1,4)-PEG4-C(O)-Van)INLKALAALAKKIL-amide”, the conjugation yield was 58%.
Work on “Van-C(O)-PEG4-Tra(1,4)-C(O)-AGYLLGKINLKALAALAKKIL-amide” yielded a conjugation yield of 85%.
“AGYLLGKINLKALAALAKKIL-Ala(Tra(1,4)-PEG4-C(O)-Van)-amide” showed a conjugation yield of 76%.
